Reference: PMC9446545
No constants are given. Whether binding was seen depends on the method and setting. In cells and extracts the contact can be indirect. Here binding means that the protein was enriched with, or labelled near, the bait; the list need not be complete.

The chains behind the UniProt entries cited, without tags or fusion partners.
UniProt P70288: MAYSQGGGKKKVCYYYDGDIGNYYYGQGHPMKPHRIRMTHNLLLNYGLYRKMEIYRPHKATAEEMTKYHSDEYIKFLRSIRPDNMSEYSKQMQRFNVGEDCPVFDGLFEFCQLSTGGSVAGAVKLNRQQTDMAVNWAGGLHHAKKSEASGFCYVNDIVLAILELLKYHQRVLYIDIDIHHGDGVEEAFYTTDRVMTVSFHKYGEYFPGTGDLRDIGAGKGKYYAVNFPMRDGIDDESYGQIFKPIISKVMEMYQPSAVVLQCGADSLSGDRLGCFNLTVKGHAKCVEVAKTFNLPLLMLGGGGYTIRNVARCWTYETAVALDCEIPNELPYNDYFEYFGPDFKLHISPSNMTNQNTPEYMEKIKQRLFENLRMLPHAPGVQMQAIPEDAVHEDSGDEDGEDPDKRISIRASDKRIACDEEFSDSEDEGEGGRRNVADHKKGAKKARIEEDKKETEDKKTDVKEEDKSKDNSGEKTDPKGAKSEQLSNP
UniProt O09106: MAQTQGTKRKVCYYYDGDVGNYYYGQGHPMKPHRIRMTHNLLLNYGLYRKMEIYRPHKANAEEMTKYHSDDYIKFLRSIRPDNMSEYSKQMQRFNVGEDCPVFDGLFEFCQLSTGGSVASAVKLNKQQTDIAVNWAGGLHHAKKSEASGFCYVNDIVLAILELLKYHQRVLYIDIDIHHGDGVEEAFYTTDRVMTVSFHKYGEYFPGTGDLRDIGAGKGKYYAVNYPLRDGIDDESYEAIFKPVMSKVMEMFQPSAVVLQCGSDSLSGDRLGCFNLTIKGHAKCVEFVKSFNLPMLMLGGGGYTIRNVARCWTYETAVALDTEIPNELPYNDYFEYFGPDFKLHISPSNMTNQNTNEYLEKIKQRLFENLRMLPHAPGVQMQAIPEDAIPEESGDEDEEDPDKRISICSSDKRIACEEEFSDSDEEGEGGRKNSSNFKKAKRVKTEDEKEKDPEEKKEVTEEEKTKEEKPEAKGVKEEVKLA
UniProt Q91ZW3: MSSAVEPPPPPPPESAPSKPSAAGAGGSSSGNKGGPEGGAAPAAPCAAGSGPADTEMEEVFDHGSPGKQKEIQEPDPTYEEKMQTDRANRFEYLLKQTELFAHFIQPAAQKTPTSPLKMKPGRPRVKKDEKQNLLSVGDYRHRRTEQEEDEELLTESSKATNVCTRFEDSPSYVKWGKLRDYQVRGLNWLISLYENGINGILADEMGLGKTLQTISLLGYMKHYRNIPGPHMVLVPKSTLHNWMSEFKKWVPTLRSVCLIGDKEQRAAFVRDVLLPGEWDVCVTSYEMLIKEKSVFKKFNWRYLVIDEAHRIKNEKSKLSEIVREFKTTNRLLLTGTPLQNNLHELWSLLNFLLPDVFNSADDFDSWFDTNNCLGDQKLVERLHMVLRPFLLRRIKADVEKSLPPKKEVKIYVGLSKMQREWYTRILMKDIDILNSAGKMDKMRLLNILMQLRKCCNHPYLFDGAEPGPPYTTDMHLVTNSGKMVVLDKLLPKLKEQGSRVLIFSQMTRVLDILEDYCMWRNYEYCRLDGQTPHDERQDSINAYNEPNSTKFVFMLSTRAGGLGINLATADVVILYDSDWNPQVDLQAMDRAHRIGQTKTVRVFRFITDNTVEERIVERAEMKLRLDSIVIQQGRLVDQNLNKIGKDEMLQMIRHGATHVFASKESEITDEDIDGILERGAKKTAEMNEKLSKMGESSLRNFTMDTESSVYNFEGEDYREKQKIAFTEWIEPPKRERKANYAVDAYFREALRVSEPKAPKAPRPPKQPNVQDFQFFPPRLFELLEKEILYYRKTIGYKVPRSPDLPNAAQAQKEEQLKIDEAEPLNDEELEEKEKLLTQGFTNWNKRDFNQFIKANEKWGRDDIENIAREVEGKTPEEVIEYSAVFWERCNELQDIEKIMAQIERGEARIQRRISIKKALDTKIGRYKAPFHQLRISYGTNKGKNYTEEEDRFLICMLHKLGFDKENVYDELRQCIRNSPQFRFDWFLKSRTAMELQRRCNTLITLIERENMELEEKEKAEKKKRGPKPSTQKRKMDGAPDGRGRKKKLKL
UniProt Q6P5D8: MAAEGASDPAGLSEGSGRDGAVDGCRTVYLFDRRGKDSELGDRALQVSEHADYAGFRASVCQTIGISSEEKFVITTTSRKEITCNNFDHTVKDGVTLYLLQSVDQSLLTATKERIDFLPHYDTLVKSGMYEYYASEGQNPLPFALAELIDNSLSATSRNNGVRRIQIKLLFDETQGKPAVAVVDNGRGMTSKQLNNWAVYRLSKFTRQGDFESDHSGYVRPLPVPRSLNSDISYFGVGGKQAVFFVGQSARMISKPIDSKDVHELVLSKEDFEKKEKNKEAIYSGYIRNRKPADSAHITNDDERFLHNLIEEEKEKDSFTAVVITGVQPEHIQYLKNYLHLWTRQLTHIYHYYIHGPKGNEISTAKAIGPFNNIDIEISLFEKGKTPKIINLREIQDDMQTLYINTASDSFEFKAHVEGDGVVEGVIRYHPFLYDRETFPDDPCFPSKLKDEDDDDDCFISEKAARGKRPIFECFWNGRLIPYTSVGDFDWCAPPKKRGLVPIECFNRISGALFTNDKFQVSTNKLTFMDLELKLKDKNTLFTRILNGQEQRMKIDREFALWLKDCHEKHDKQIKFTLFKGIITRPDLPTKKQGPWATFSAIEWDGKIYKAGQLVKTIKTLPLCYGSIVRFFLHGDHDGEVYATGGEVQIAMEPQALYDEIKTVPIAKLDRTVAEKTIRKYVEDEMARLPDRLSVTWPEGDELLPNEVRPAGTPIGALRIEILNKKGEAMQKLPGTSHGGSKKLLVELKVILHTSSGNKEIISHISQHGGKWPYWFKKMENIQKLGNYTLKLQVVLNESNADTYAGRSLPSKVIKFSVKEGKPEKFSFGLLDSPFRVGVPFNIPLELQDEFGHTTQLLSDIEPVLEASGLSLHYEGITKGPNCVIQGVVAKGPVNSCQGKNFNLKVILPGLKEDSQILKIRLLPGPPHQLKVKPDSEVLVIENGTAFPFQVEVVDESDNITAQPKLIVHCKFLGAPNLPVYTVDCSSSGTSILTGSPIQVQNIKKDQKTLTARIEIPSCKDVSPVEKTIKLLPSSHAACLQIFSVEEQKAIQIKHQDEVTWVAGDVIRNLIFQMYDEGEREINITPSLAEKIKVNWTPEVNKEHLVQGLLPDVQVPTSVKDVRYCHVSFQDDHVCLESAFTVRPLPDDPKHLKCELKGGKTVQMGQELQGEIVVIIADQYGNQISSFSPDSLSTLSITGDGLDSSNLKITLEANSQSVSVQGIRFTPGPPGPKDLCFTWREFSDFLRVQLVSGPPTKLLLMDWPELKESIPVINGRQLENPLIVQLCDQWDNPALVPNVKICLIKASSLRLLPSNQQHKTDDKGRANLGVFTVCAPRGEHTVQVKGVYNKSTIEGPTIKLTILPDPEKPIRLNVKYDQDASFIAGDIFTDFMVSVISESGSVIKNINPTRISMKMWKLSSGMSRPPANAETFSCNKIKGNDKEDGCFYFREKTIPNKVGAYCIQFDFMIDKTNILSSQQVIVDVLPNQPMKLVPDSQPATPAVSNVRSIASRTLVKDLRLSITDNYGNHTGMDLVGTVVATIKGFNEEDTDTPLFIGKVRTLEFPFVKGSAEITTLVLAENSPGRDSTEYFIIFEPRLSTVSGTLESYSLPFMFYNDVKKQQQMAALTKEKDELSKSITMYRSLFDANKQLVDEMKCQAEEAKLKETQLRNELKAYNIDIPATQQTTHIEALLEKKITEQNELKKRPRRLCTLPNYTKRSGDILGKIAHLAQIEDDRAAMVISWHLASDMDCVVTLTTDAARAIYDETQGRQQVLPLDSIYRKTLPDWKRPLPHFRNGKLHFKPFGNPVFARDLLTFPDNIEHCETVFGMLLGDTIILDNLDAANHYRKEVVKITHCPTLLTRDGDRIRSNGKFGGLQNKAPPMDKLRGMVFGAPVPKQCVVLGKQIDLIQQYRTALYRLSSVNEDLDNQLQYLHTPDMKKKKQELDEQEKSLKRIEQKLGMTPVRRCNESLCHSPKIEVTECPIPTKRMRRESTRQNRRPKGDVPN
UniProt Q6PDQ2: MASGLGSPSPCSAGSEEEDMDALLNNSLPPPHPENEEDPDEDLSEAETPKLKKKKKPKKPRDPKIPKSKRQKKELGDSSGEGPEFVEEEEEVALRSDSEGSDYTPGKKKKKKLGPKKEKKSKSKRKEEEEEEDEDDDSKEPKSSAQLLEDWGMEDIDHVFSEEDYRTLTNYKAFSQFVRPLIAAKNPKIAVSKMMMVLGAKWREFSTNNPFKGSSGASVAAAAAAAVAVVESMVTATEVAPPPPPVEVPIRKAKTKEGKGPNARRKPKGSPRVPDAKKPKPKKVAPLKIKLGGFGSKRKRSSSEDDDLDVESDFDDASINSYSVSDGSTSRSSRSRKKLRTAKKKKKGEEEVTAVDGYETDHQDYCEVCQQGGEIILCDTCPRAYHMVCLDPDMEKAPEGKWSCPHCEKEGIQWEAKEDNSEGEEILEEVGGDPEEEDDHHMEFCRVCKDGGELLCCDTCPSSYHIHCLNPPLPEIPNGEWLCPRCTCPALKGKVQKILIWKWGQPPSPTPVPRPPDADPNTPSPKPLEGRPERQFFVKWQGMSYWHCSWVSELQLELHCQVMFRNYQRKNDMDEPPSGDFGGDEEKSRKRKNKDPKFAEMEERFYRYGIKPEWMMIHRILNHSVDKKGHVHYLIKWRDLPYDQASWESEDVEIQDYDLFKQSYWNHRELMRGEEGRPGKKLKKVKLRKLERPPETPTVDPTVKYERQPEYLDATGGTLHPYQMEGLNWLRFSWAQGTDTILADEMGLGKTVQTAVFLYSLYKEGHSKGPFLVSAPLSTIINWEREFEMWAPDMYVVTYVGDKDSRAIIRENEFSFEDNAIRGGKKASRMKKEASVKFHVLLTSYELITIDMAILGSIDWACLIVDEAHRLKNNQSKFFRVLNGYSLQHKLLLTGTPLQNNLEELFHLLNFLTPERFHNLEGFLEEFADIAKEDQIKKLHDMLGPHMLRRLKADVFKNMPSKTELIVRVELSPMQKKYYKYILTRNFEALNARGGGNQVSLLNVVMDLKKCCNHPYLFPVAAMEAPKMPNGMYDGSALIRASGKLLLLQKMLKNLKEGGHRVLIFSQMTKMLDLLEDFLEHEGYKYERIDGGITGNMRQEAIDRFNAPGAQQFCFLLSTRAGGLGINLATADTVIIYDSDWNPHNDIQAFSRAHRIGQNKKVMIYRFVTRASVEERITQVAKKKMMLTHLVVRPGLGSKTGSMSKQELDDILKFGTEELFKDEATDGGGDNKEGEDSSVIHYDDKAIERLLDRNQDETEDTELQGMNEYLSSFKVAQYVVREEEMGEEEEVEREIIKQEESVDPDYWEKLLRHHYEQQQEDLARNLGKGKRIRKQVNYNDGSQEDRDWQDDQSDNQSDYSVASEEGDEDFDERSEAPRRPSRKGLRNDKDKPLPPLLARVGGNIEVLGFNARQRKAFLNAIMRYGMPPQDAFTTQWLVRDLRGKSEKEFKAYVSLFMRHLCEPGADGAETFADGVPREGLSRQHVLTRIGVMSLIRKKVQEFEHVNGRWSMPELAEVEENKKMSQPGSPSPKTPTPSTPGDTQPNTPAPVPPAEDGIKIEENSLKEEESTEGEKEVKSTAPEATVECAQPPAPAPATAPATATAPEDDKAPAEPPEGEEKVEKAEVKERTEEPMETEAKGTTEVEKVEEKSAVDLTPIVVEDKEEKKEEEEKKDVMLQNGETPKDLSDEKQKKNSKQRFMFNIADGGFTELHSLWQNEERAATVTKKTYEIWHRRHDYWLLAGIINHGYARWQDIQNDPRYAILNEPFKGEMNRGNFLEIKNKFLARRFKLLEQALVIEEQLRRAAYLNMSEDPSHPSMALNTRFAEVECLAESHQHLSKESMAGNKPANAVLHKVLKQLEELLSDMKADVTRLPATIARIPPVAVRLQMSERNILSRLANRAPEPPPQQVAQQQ

T1: ZCWPW1 (endogenous, mouse testes) (mouse (endogenous in mouse testes)) (UniProt Q6IR42)
T1 sequence: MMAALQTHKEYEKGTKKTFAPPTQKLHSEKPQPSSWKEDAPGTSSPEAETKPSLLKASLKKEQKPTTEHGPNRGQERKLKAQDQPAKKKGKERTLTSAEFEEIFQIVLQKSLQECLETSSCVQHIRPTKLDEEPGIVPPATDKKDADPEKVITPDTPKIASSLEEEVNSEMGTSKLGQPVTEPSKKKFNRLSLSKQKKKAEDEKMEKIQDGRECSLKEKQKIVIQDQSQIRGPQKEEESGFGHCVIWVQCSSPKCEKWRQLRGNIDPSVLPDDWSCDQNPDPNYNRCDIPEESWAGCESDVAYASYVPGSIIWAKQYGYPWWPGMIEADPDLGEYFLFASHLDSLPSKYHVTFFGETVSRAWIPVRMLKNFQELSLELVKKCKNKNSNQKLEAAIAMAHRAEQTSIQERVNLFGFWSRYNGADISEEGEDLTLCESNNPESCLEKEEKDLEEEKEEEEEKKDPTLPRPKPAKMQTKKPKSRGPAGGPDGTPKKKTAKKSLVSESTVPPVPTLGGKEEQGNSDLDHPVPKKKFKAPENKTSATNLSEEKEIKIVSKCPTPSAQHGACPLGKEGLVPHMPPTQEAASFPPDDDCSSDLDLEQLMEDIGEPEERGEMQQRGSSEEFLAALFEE


target: T1, ZCWPW1 (endogenous, mouse testes) (mouse (endogenous in mouse testes)); assay: affinity purification with mass spectrometry; RIME: cells of PD13-14 or PD16-PD18 WT mouse testes crosslinked in 1% formaldehyde for 15 min, sonicated chromatin; ZCWPW1 immunoprecipitated with rabbit anti-ZCWPW1 (normal rabbit IgG as control), protein A/G magnetic beads, trypsin digest, LC-MS/MS

| Molecule | binding |
| --- | --- |
| HDAC2 (endogenous, mouse testes) (from UniProt P70288 1-488) (enzyme) | binds |
| HDAC1 (endogenous, mouse testes) (from UniProt O09106 1-482) (enzyme) | binds |
| SMARCA5 (endogenous, mouse testes) (from UniProt Q91ZW3 1-1051) | binds |

Other lines, results leading:

| binding | Molecule |
| --- | --- |
| binds | SMCHD1 (endogenous, mouse testes) (from UniProt Q6P5D8 1-2007) |
| binds | CHD4 (endogenous, mouse testes) (from UniProt Q6PDQ2 1-1915) |
| binds | HDAC6 (endogenous, mouse testes) (enzyme, UniProt Q9Z2V5 1-1149) MTSTGQDSSTRQRKSRHNPQSPLQESSATLKRGGKKCAVPHSSPNLAEVKKKGKMKKLSQPAEEDLVVGLQGLDLNPETRVPVGTGLVFDEQLNDFHCLWDDSFPESPERLHAIREQLILEGLLGRCVSFQARFAEKEELMLVHSLEYIDLMETTQYMNEGELRVLAETYDSVYLHPNSYSCACLATGSVLRLVDALMGAEIRNGMAVIRPPGHHAQHNLMDGYCMFNHLAVAARYAQKKHRIQRVLIVDWDVHHGQGTQFIFDQDPSVLYFSIHRYEHGRFWPHLKASNWSTIGFGQGQGYTINVPWNQTGMRDADYIAAFLHILLPVASEFQPQLVLVAAGFDALHGDPKGEMAATPAGFAHLTHLLMGLAGGKLILSLEGGYNLRALAKGVSASLHTLLGDPCPMLESCVVPCASAQTSIYCTLEALEPFWEVLERSVETQEEDEVEEAVLEEEEEEGGWEATALPMDTWPLLQNRTGLVYDEKMMSHCNLWDNHHPETPQRILRIMCHLEEVGLAARCLILPARPALDSELLTCHSAEYVEHLRTTEKMKTRDLHREGANFDSIYICPSTFACAKLATGAACRLVEAVLSGEVLNGIAVVRPPGHHAEPNAACGFCFFNSVAVAARHAQIIAGRALRILIVDWDVHHGNGTQHIFEDDPSVLYVSLHRYDRGTFFPMGDEGASSQVGRDAGIGFTVNVPWNGPRMGDADYLAAWHRLVLPIAYEFNPELVLISAGFDAAQGDPLGGCQVTPEGYAHLTHLLMGLAGGRIILILEGGYNLASISESMAACTHSLLGDPPPQLTLLRPPQSGALVSISEVIQVHRKYWRSLRLMKMEDKEECSSSRLVIKKLPPTASPVSAKEMTTPKGKVPEESVRKTIAALPGKESTLGQAKSKMAKAVLAQGQSSEQAAKGTTLDLATSKETVGGATTDLWASAAAPENFPNQTTSVEALGETEPTPPASHTNKQTTGASPLQGVTAQQSLQLGVLSTLELSREAEEAHDSEEGLLGEAAGGQDMNSLMLTQGFGDFNTQDVFYAVTPLSWCPHLMAVCPIPAAGLDVSQPCKTCGTVQENWVCLTCYQVYCSRYVNAHMVCHHEASEHPLVLSCVDLSTWCYVCQAYVHHEDLQDVKNAAHQNKFGEDMPHSH |
